Values quoted from earlier work as cited in patent US11939319B2, “Pyridinyl and pyrazinyl-(asa)indolsulfonamides” (UCB Pharma GmbH, priority 2018, dated 2024).
At least one structure is not confirmed: it was looked up by name or label, or the drawing left a doubt.

The chains behind the UniProt entries cited, without tags or fusion partners.
UniProt Q13304, whole entry, species assumed: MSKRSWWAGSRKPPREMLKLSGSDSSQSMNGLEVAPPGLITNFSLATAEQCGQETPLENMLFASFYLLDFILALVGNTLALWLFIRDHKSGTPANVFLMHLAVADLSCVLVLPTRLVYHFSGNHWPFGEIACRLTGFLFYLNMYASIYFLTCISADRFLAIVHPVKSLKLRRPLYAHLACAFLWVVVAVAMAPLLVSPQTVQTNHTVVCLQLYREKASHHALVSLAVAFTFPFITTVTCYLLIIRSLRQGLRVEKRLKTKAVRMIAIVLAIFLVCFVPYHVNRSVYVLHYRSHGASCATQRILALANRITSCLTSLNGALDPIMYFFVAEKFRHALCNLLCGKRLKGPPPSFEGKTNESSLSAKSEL

Biological target: GPR17 (Homo sapiens, UniProt Q13304)
Details: Köse et al, ACS Med. Chem. Lett. 2014; cited from earlier work

O=C(Nc1cccc2c(=O)cc(-c3nnn[nH]3)oc12)c1ccc(OCCCCc2ccccc2)cc1 [prankulast, pranlukast]
affinity to GPR17: high micromolar range
